From patent US20250170127A1, “RE-SENSITIZING MULTIDRUG-RESISTANT (MDR) GRAM-NEGATIVE BACTERIA TO COLISTIN USING IONOPHORES” (The Regents of the University of Colorado, a body corporate, priority 2022, published 2025)

Test system: HeLa cells
Assay type: cell-based, human
Settings: GI50 in HeLa / MRC in AR-0493
Description: These 10 compounds were tested for their MICs and minimum re-sensitizing concentrations (MRCs) in the presence colistin at 2 μg/mL in E. coli AR-0493. […] To evaluate their toxicity in mammalian cells, the present inventors treated human epithelial adenocarcinoma HeLa cells with each compound at a wide range of concentrations.
To evaluate the mammalian toxicity of these analogs, Applicants tested them in cell viability assay using human cervical adenocarcinoma HeLa cells. Their respective half maximal growth inhibition concentration (GI50) was calculated using KaleidaGraph. The selectivity index (SI) for each compound was also calculated as the ratio of their GI50 and MRC. […] Therefore, Applicants selected two bisanilino analogs, 7l and 7m, that bear chlorines at the meta- and para-positions, respectively, of the phenyl groups for further characterization studies. […]. […] Their mammalian toxicities were also evaluated, and SIs calculated. […] Applicants we next explored the scope of analogs 71 and 7m their colistin-potentiating activity in 8 different MDR Gram negative bacteria with diverse genetic backgrounds and resistance mechanisms (Table 7). All strains were obtained from CDC and FDA Antibiotic Resistance Bank. For example, E. coli AR-0493 and K. pneumoniae AR-0497 carry the plasmid that contains the most prevalent mcr-1 gene. […]

Compound | SI (Selective Index), ratio of GI50 and MRC
Clc1ccc(Nc2nc3nonc3nc2Nc2ccc(Cl)cc2)cc1 [Compound 7m] | 56
Clc1cccc(Nc2nc3nonc3nc2Nc2cccc(Cl)c2)c1 [Compound 7l] | 44
